Assay results: patent US20200317759A1
These are yes or no findings as the source states them, for the method shown. In cells and extracts the contact can be indirect. Some results given as binding are weak or reduced against the parent protein; the word gives no strength.

molecular target: wild-type LukB subunit (S. aureus Newman) (Staphylococcus aureus (Newman)) (UniProt P21224); assay: co-expression in E. coli and co-purification

**Q.** Which binding does the source give for “LukA L61N mutant subunit (from UniProt Q2FFA2 28-351)” here?
**A.** binds

**Q.** With “LukA L61Q mutant subunit (from UniProt Q2FFA2 28-351)” as the substance, how does the binding read?
**A.** binds

**Q.** How did the binding turn out when “LukA D39R mutant subunit (from UniProt Q2FFA2 28-351)” was run?
**A.** binds

**Q.** Which binding does the source give for “LukA L61R mutant subunit (from UniProt Q2FFA2 28-351)” here?
**A.** binds

**Q.** For “LukA D197A mutant subunit (from UniProt Q2FFA2 28-351)”, which binding is on record?
**A.** binds

**Q.** “LukA D39A mutant subunit (from UniProt Q2FFA2 28-351)” was tested. Which binding did it give?
**A.** binds

molecular target: wild-type LukA subunit (S. aureus Newman) (Staphylococcus aureus (Newman)) (UniProt Q2FFA2); assay: co-expression in E. coli and co-purification

**Q.** “LukB K58A mutant subunit (from UniProt P21224 30-338)” was tested. Which binding did it give?
**A.** binds

**Q.** How did the binding turn out when “LukB R23A mutant subunit (from UniProt P21224 30-338)” was run?
**A.** binds

**Q.** With “LukB R23E mutant subunit (from UniProt P21224 30-338)” as the substance, how does the binding read?
**A.** binds

**Q.** How did the binding turn out when “LukB K58E mutant subunit (from UniProt P21224 30-338)” was run?
**A.** binds
